Assay in all cases: co-IP
Assay [1] concerns the target T1, Flag-tagged human PRDX4 (human) (UniProt Q13162).
T1 sequence: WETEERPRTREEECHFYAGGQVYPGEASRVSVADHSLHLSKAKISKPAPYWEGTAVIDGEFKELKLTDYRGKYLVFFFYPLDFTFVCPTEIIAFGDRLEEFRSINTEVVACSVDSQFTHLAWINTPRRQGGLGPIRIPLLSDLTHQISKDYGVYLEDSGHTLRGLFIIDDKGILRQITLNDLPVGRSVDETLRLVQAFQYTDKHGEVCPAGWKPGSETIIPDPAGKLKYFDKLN

Assay [2] has as its target T1, Flag-tagged human PRDX4 (human). The source holds these as a separate data set.
Assay [3] concerns the target MYC-tagged wild-type human proinsulin (human).
Assay [4] deals with human proinsulin (human (endogenous in human islets)).

In article doi:10.1101/699132 (bioRxiv, 2020) one finds binding data, which are given here for six molecules.

Like-named read-outs stand apart in the source and are kept apart here. These are yes or no findings as the source states them, for the method shown. Binding seen in cells or lysates may run through a third protein. A result given as binding can be weak or reduced; the word gives no strength. For some of these results: Where a sequence is shown, tags or fusion partners need not be part of it.

On to MYC-tagged wild-type human proinsulin, for which the binding entry in assay [1] and in assay [2] was “binds” throughout. Regarding “MYC-tagged Akita mutant human proinsulin”, in assay [1], the binding result is recorded as “binds”.

B1: Flag-tagged human PRDX4 (enzyme, UniProt Q13162 38-271)
chain: WETEERPRTREEECHFYAGGQVYPGEASRVSVADHSLHLSKAKISKPAPYWEGTAVIDGEFKELKLTDYRGKYLVFFFYPLDFTFVCPTEIIAFGDRLEEFRSINTEVVACSVDSQFTHLAWINTPRRQGGLGPIRIPLLSDLTHQISKDYGVYLEDSGHTLRGLFIIDDKGILRQITLNDLPVGRSVDETLRLVQAFQYTDKHGEVCPAGWKPGSETIIPDPAGKLKYFDKLN
For the molecule B1, in assay [3], the binding result is “binds”.

B2: Human QSOX1-HA (enzyme, UniProt O00391 30-747)
chain: APRSALYSPSDPLTLLQADTVRGAVLGSRSAWAVEFFASWCGHCIAFAPTWKALAEDVKAWRPALYLAALDCAEETNSAVCRDFNIPGFPTVRFFKAFTKNGSGAVFPVAGADVQTLRERLIDALESHHDTWPPACPPLEPAKLEEIDGFFARNNEEYLALIFEKGGSYLGREVALDLSQHKGVAVRRVLNTEANVVRKFGVTDFPSCYLLFRNGSVSRVPVLMESRSFYTAYLQRLSGLTREAAQTTVAPTTANKIAPTVWKLADRSKIYMADLESALHYILRIEVGRFPVLEGQRLVALKKFVAVLAKYFPGRPLVQNFLHSVNEWLKRQKRNKIPYSFFKTALDDRKEGAVLAKKVNWIGCQGSEPHFRGFPCSLWVLFHFLTVQAARQNVDHSQEAAKAKEVLPAIRGYVHYFFGCRDCASHFEQMAAASMHRVGSPNAAVLWLWSSHNRVNARLAGAPSEDPQFPKVQWPPRELCSACHNERLDVPVWDVEATLNFLKAHFSPSNIILDFPAAGSAARRDVQNVAAAPELAMGALELESRNSTLDPGKPEMMKSPTNTTPHVPAEGPEASRPPKLHPGLRAAPGQEPPEHMAELQRNEQEQPLGQWHLSKRDTGAALLAESRAEKNRLWGPLEVRRVGRSSKQLVDIPEGQLEARAGRGRGQWLQVLGGGFSYLDISLCVGLYSLSFMGLLAMYTYFQAKIRALKGHAGHPAA
For the molecule B2, the binding result in assay [3] is listed as “binds”.

B3: ERGIC1 (protein, UniProt Q969X5 1-290)
chain: MPFDFRRFDIYRKVPKDLTQPTYTGAIISICCCLFILFLFLSELTGFITTEVVNELYVDDPDKDSGGKIDVSLNISLPNLHCELVGLDIQDEMGRHEVGHIDNSMKIPLNNGAGCRFEGQFSINKVPGNFHVSTHSATAQPQNPDMTHVIHKLSFGDTLQVQNIHGAFNALGGADRLTSNPLASHDYILKIVPTVYEDKSGKQRYSYQYTVANKEYVAYSHTGRIIPAIWFRYDLSPITVKYTERRQPLYRFITTICAIIGGTFTVAGILDSCIFTASEAWKKIQLGKMH
For the molecule B3, the binding result in assay [4] was “binds”.

B4: ERDJ5 (protein, UniProt Q8IXB1 33-793)
chain: DQDFYSLLGVSKTASSREIRQAFKKLALKLHPDKNPNNPNAHGDFLKINRAYEVLKDEDLRKKYDKYGEKGLEDNQGGQYESWNYYRYDFGIYDDDPEIITLERREFDAAVNSGELWFVNFYSPGCSHCHDLAPTWRDFAKEVDGLLRIGAVNCGDDRMLCRMKGVNSYPSLFIFRSGMAPVKYHGDRSKESLVSFAMQHVRSTVTELWTGNFVNSIQTAFAAGIGWLITFCSKGGDCLTSQTRLRLSGMLDGLVNVGWMDCATQDNLCKSLDITTSTTAYFPPGATLNNKEKNSILFLNSLDAKEIYLEVIHNLPDFELLSANTLEDRLAHHRWLLFFHFGKNENSNDPELKKLKTLLKNDHIQVGRFDCSSAPDICSNLYVFQPSLAVFKGQGTKEYEIHHGKKILYDILAFAKESVNSHVTTLGPQNFPANDKEPWLVDFFAPWCPPCRALLPELRRASNLLYGQLKFGTLDCTVHEGLCNMYNIQAYPTTVVFNQSNIHEYEGHHSAEQILEFIEDLMNPSVVSLTPTTFNELVTQRKHNEVWMVDFYSPWCHPCQVLMPEWKRMARTLTGLINVGSIDCQQYHSFCAQENVQRYPEIRFFPPKSNKAYHYHSYNGWNRDAYSLRIWGLGFLPQVSTDLTPQTFSEKVLQGKNHWVIDFYAPWCGPCQNFAPEFELLARMIKGKVKAGKVDCQAYAQTCQKAGIRAYPTVKFYFYERAKRNFQEEQINTRDAKAIAALISEKLETLRNQGKRNKDEL
Take B4: the binding result in assay [4] was “binds”.
